Test results reported in publication PMC10462132.
No constants are given. Whether binding was seen depends on the method and setting. A result given as binding can be weak or reduced; the word gives no strength.

Molecular target: CdxB (Caulobacter crescentus)
Test: two-hybrid; bacterial two-hybrid: fusions to T25 and T18c fragments of adenylate cyclase co-expressed in E. coli BTH101, 0.5 mM IPTG, 30°C; lacZ reporter, β-galactosidase activity in Miller units (and X-gal plates)

For CdxA (from UniProt A0A0H3C2L6), the binding was “binds”.
